In patent US20160228570A1 (QUEEN MARY AND WESTFIELD COLLEGE, published 2016):
Positions count from the first letter of the chain named. These are yes or no findings as the source states them, for the method shown. Some entries that bind do so weakly or less than the wild type.

Chains of the proteins cited; added tags and fusions are not shown. Residues count along the entry.
UniProt P02459, residues 201-1214: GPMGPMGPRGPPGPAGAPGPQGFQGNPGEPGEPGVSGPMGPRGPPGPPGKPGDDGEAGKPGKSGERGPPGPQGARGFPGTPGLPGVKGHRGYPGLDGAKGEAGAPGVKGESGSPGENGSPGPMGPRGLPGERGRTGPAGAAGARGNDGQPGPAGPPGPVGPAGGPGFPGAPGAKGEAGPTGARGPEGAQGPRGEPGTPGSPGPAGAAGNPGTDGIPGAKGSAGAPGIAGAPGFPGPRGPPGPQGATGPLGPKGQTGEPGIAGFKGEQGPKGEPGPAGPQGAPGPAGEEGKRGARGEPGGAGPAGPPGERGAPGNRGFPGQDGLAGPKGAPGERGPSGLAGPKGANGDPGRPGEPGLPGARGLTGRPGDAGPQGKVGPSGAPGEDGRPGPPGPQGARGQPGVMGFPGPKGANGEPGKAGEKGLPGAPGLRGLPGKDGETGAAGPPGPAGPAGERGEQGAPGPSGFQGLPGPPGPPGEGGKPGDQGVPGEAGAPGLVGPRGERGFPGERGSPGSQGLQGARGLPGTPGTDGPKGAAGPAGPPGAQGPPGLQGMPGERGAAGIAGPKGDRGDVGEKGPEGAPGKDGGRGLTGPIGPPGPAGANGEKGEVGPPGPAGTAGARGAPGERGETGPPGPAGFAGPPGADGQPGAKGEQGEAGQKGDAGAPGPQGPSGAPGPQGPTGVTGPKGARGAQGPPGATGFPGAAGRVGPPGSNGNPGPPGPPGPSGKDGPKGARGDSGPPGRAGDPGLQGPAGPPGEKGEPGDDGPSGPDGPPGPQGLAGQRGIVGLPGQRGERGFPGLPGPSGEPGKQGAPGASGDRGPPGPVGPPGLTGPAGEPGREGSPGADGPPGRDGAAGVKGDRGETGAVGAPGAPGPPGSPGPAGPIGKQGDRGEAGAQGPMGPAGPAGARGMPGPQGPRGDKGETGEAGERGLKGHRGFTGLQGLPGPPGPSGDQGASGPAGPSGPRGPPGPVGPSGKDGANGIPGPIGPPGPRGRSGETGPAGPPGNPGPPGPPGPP

B1: scFv 1-1C (scFv)
scFv: EVQLLESGGGLVQPGGSLRLSCAASGFTFSSYAMSWVRQAPGKGLEWVSSISYTGNSTDYADSVKGRFTISRDNSKNTLYLQMNSLRAEDTAVYYCAKGYTAFDYWGQGTLVTVSSGGGGSGGGGSGGGGSTDIQMTQSPSSLSASVGDRVTITCRASQSISSYLNWYQQKPGKAPKLLIYYASYLQSGVPSRFSGSGSGTDFTLTISSLQPEDFATYYCQQADSTPTTFGQGTKVEIKR
B2: scFv 1-12A (scFv)
scFv: EVQLLESGGGLVQPGGSLRLSCAASGFTFSSYAMSWVRQAPGKGLEWVSSISNSGTNTDYADSVKGRFTISRDNSKNTLYLQMNSLRAEDTAVYYCAKNYASFDYWGQGTLVTVSSGGGGSGGGGSGGGGSTDIQMTQSPSSLSASVGDRVTITCRASQSISSYLNWYQQKPGKAPKLLIYYASYLQSGVPSRFSGSGSGTDFTLTISSLQPEDFATYYCQQGSASPSTFGQGTKVEIKR
B3: scFv 3-9A (scFv)
scFv: EVQLLESGGGLVQPGGSLRLSCAASGFTFSSYAMSWVRQAPGKGLEWVSTIDTAGSYTDYADSVKGRFTISRDNSKNTLYLQMNSLRAEDTAVYYCAKNYSYFDYWGQGTLVTVSSGGGGSGGGGSGGGGSTDIQMTQSPSSLSASVGDRVTITCRASQSISSYLNWYQQKPGKAPKLLIYGASTLQSGVPSRFSGSGSGTDFTLTISSLQPEDFATYYCQQSTASPSTFGQGTKVEIKR
B4: scFv 6-10D (scFv)
scFv: EVQLLESGGGLVQPGGSLRLSCAASGFTFSSYAMSWVRQAPGKGLEWVSSISNNGSSTYYADSVKGRFTISRDNSKNTLYLQMNSLRAEDTAVYYCAKNYSYFDYWGQGTLVTVSSGGGGSGGGGSGGGGSTDIQMTQSPSSLSASVGDRVTITCRASQSISSYLNWYQQKPGKAPKLLIYAASNLQSGVPSRFSGSGSGTDFTLTISSLQPEDFATYYCQQTSSYPTTFGQGTKVEIKR
B5: scFv 3-5H (scFv)
scFv: B2 scFv with S52A, N53Y, S54G, T56A, N57G, A101T, S102A, Y182A, S224A, A225G
B6: scFv 3-2F (scFv)
scFv: EVQLLESGGGLVQPGGSLRLSCAASGFTFSSYAMSWVRQAPGKGLEWVSAIANTGSATNYADSVKGRFTISRDNSKNTLYLQMNSLRAEDTAVYYCAKNYTAFDYWGQGTLVTVSSGGGGSGGGGSGGGGSTDIQMTQSPSSLSASVGDRVTITCRASQSISSYLNWYQQKPGKAPKLLIYDASTLQSGVPSRFSGSGSGTDFTLTISSLQPEDFATYYCQQRNTSPTTFGQGTKVEIKR
B7: scFv 6-9F (scFv)
scFv: EVQLLESGGGLVQPGGSLRLSCAASGFTFSSYAMSWVRQAPGKGLEWVSSINDTGYTTYYADSVKGRFTISRDNSKNTLYLQMNSLRAEDTAVYYCAKNYTYFDYWGQGTLVTVSSGGGGSGGGGSGGGGSTDIQMTQSPSSLSASVGDRVTITCRASQSISSYLNWYQQKPGKAPKLLIYTASTLQSGVPSRFSGSGSGTDFTLTISSLQPEDFATYYCQQAYTAPTTFGQGTKVEIKR
B8: scFv 3-9D (scFv)
scFv: EVQLLESGGGLVQPGGSLRLSCAASGFTFSSYAMSWVRQAPGKGLEWVSSIASSGTTTYYADSVKGRFTISRDNSKNTLYLQMNSLRAEDTAVYYCAKSYADFDYWGQGTLVTVSSGGGGSGGGGSGGGGSTDIQMTQSPSSLSASVGDRVTITCRASQSISSYLNWYQQKPGKAPKLLIYAASNLQSGVPSRFSGSGSGTDFTLTISSLQPEDFATYYCQQADTYPTTFGQGTKVEIKR
B9: scFv 3-3E (scFv)
scFv: EVQLLESGGGLVQPGGSLRLSCAASGFTFSSYAMSWVRQAPGKGLEWVSAIDGTGYGTAYADSVKGRFTISRDNSKNTLYLQMNSLRAEDTAVYYCAKSYDTFDYWGQGTLVTVSSGGGGSGGGGSGGGGSTDIQMTQSPSSLSASVGDRVTITCRASQSISSYLNWYQQKPGKAPKLLIYGASSLQSGVPSRFSGSGSGTDFTLTISSLQPEDFATYYCQQTSDYPNTFGQGTKVEIKR
B10: scFv 3-10C (scFv)
scFv: B8 scFv with S53N, S54A, T57A, A101S, D102N, A182S, N185T, D224S, Y226S
B11: scFv 3-11E (scFv)
scFv: B4 scFv with S52D, N53S, N54A, S56D, N99S, A182T, N185Y, T223A, S225D
B12: scFv 6-8C (scFv)
scFv: B4 scFv with N53S, N54S, S56D, S57T, N99S, A182T, N185T, T223S, Y226N
B13: scFv 1-7G (scFv)
scFv: B2 scFv with T56S, N57Y, N99G, A101G, Y182A, Y185T, G223A, S224N, A225S, S228D
B14: scFv 1-2E (scFv)
scFv: EVQLLESGGGLVQPGGSLRLSCAASGFTFSSYAMSWVRQAPGKGLEWVSSITDSGDTTYYADSVKGRFTISRDNSKNTLYLQMNSLRAEDTAVYYCAKNYSTFDYWGQGTLVTVSSGGGGSGGGGSGGGGSTDIQMTQSPSSLSASVGDRVTITCRASQSISSYLNWYQQKPGKAPKLLIYSASSLQSGVPSRFSGSGSGTDFTLTISSLQPEDFATYYCQQSNATPTTFGQGTKVEIKR
B15: scFv 4-3H (scFv)
scFv: EVQLLESGGGLVQPGGSLRLSCAASGFTFSSYAMSWVRQAPGKGLEWVSTITSTGAATAYADSVKGRFTISRDNSKNTLYLQMNSLRAEDTAVYYCAKSYATFDYWGQGTLVTVSSGGGGSGGGGSGGGGSTDIQMTQSPSSLSASVGDRVTITCRASQSISSYLNWYQQKPGKAPKLLIYAASYLQSGVPSRFSGSGSGTDFTLTISSLQPEDFATYYCQQAANSPDTFGQGTKVEIKR
B16: scFv 1-10D (scFv)
scFv: EVQLLESGGGLVQPGGSLRLSCAASGFTFSSYAMSWVRQAPGKGLEWVSSIDASGANTAYADSVKGRFTISRDNSKNTLYLQMNSLRAEDTAVYYCAKTYGTFDYWGQGTLVTVSSGGGGSGGGGSGGGGSTDIQMTQSPSSLSASVGDRVTITCRASQSISSYLNWYQQKPGKAPKLLIYSASYLQSGVPSRFSGSGSGTDFTLTISSLQPEDFATYYCQQSATTPDTFGQGTKVEIKR

What follows are binders tested against T1, HOCl modified CII (bovine, UniProt P02459 201-1214, modified with HOCl; residues not stated) (assay: phage ELISA screen; Antigen column of Table 3).
T1 construct: also called HOCl-CII; HOCl-Collagen II

Row | Binder | binding
1 | B1 | binds
2 | B2 | binds
3 | B3 | binds
4 | B4 | binds
5 | B5 | binds
6 | B6 | binds
7 | B7 | binds
8 | B8 | binds
9 | B9 | binds
10 | B10 | binds
11 | B11 | binds
12 | B12 | binds

What follows are binders tested against T2, ribose-modified CII (bovine, UniProt P02459 201-1214, glycated with 2M ribose, overnight at 37 C; residues not stated) (assay: phage ELISA screen; Antigen column of Table 3).
T2 construct: also called Ribose-CII; glycated CII

Row | Binder | binding
13 | B1 | binds
14 | B2 | binds
15 | B13 | binds
16 | B14 | binds
17 | B15 | binds
18 | B16 | binds
